Test results reported in publication doi:10.1101/2023.06.17.545446.
These are yes or no findings as the source states them, for the method shown. Some entries that bind do so weakly or less than the wild type.

Target: multidrug efflux transporter AcrB (E. coli) (UniProt P31224)
Test: cryo-EM structure

binding: binds
Substance: multidrug efflux transporter AcrB (from UniProt P31224 1-1049)
